# Measured values from PubChem BioAssay AID540276 (National Center for Advancing Translational Sciences (NCATS), 2011).
# In all, about 300,000 compounds went through this assay and about 5,400 (1.8%) were called active. Inconclusive results, whose numbers are uncertain, are shown with a selection of clear calls. Calls follow the shape of the full dose curve; tested in HEK293 cells. Where the call is inconclusive, the potency comes from a doubtful curve fit.
# Test: qHTS for inhibitors of binding or entry into cells for Marburg Virus
# Conditions: Marburg virus pseudotyped entry inhibition, cell reporter; series mostly up to 37.8 µM
# Potency is read from the fitted curve at half-maximal effect.
row,Compound,Potency
1,CSc1ccc(C(=O)C2CCCN(Cc3cc4ccccc4[nH]3)C2)cc1 (stereo unspecified),active: 3.55 µM
2,CC(C)Sc1nnc([C@H](C)NC(=O)OC(C)(C)C)o1,"inconclusive: 6.51 µM [activator, partial curve, poor fit]"
3,N#CC1=C(N)N(c2ccc(Cl)cc2)C2=C(C(=O)CCC2)C1c1cc(CN2CCOCC2)cs1 (stereo unspecified),"inconclusive: 11.2 µM [inhibitor, single point]"
4,O=C1CCCc2nc(N3CCCCC3)sc21,"inconclusive: 10 µM [activator, partial curve, poor fit]"
5,CCc1ccc2oc(C(=O)NCc3ccncc3)c(C)c2c1,inactive
6,CCN(CC)CCC(O)(c1ccc2c(c1)OCO2)c1cc(OC)c(OC)c(OC)c1 (stereo unspecified),"inconclusive: 3.98 µM [inhibitor, partial curve, poor fit]"
7,O=C(Cc1cccs1)Nc1ccccc1C(=O)O,inactive
8,Cc1ccc(N/C=C(/C#N)c2ccsc2)cc1,inactive
9,CSc1nsc(SC)c1NC(=O)OCc1ccccc1,inactive
10,COc1cccc(-c2nc3c(C#N)c[nH]n3c2NC2CCCCC2)c1,"inconclusive: 11.2 µM [inhibitor, partial curve]"
11,COC(=O)c1scc2c(Oc3ccccc3)cc(C(F)(F)F)nc12,inactive
12,COc1cccc(C(=O)C2CCCN(Cc3cccc(OCCO)c3)C2)c1 (stereo unspecified),inactive
13,S=C(N/N=C/c1ccccc1)N1CCOCC1,"inconclusive: 11.2 µM [activator, single point]"
14,CC(=O)Nc1ncc(N=Nc2cccc(C(F)(F)F)c2)s1,"inconclusive: 1 µM [inhibitor, partial curve, poor fit]"
15,Cc1cc(NC(=O)c2cnn(-c3ccccc3)c2-n2cccc2)ccc1Br,inactive
16,CCOC(=O)C(C(=O)OCC)C(C)(C)/C(C)=N\Nc1ccc([N+](=O)[O-])cc1[N+](=O)[O-],"inconclusive: 7.08 µM [inhibitor, partial curve, poor fit]"
17,COc1ccc(OCc2csc(N)n2)cc1,"inconclusive: 0.794 µM [activator, full curve, poor fit]"
18,Cn1c(C(=O)NCc2ccccc2Cl)cc2sc(Cl)cc21,active: 3.16 µM
19,CN(C)C(CNC(=O)c1ccc(C(=O)c2ccccc2)cc1)c1ccccc1 (stereo unspecified),"inconclusive: 8.91 µM [inhibitor, partial curve, poor fit]"
20,O=C(c1ccc(Cl)cc1)C1CCCN(Cc2cnn(-c3ccccc3)c2)C1 (stereo unspecified),active: 5.62 µM
21,COc1cc(C(=O)NC2CCCc3c2cnn3-c2ccccc2F)cc(OC)c1OC (stereo unspecified),"inconclusive: 10 µM [inhibitor, partial curve, poor fit]"

# Arranged by molar mass (rising): part of the list above
row,Compound,Potency
13,S=C(N/N=C/c1ccccc1)N1CCOCC1,"inconclusive: 11.2 µM [activator, single point]"
7,O=C(Cc1cccs1)Nc1ccccc1C(=O)O,inactive
6,CCN(CC)CCC(O)(c1ccc2c(c1)OCO2)c1cc(OC)c(OC)c(OC)c1 (stereo unspecified),"inconclusive: 3.98 µM [inhibitor, partial curve, poor fit]"
